Values from PubChem BioAssay AID1259254 (NCATS, 2017).

- Screen: 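Finding genes that stop cells copying their DNA twice in one cycle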 (primary screen)
- System: human HCT116 colorectal cancer cells
- Knock-down reagent: single siRNA against human genes
- Duration: 3 days
- Measured: 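Nuclei stained with Hoechst and imaged; cell-cycle phase assigned by DNA content; G2 share scaled per plate, non-targeting siRNA 0%, GMNN siRNA 100%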
- Direction: G2 robust z-score and G2 cells, % of GMNN control: higher = more G2 cells, more excess DNA replication; raw share of cells in G2: higher = larger share of cells with G2 DNA content
- Call rule: 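Active siRNAs have a G2 robust z of 5 or more median absolute deviations over the median, which in these data means about 38% or higher of GMNN control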
This is one part, drawn at random, of about 59,000 reagents. In the full data, about 1,550 (2.6%) are marked active. 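G2 share is only a proxy for re-replication; each gene was hit by three separate siRNAs, and active genes were retested.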 Raw values vary from plate to plate and are shown uncorrected. The numbers tell different reagents against one gene apart. Reagent sequences are not shown. Not given: the amount of reagent.

no.	target gene	siRNA no.	G2 robust z-score	G2 cells, % of GMNN control	raw share of cells in G2 (%)	outcome
1	SV2A	1	-0.785	-2.56	4.24	inactive
2	SV2A	2	-1.05	-4.45	2.94	inactive
3	SV2A	3	-0.294	0.902	3.51	inactive
4	DIDO1	1	0.511	6.56	7.56	inactive
5	DIDO1	2	3.57	28.1	15.7	inactive
6	DIDO1	3	3.13	25	12.5	inactive
7	CREG2	1	3.95	30.8	14.6	inactive
8	CREG2	2	-0.517	-0.668	2.74	inactive
9	CREG2	3	-0.502	-0.568	2.58	inactive
10	NRIP1	1	0.886	9.2	6.59	inactive
11	NRIP1	2	0.387	5.69	8.52	inactive
12	NRIP1	3	-0.453	-0.222	3.25	inactive
13	NIPBL	1	-1.45	-7.22	1.7	inactive
14	NIPBL	2	-0.898	-3.35	2.49	inactive
15	NIPBL	3	-1.4	-6.91	0.885	inactive
16	CCL3	1	3.21	25.6	15.8	inactive
17	CCL3	2	-0.911	-3.44	2.86	inactive
18	CCL3	3	-0.7	-1.96	2.65	inactive
19	NUAK1	1	-0.45	-0.197	5.54	inactive
20	NUAK1	2	-0.679	-1.81	4.8	inactive
21	NUAK1	3	-0.609	-1.31	3.56	inactive
22	PDAP1	1	-0.624	-1.43	4.43	inactive
23	PDAP1	2	0.0445	3.28	5.49	inactive
24	PDAP1	3	-0.689	-1.88	2.47	inactive
25	SPICE1	1	0.0107	3.04	4.85	inactive
26	SPICE1	2	-0.427	-0.0362	2.9	inactive
27	SPICE1	3	-0.575	-1.08	2.69	inactive
28	RSPO2	1	1.09	10.6	7.64	inactive
29	RSPO2	2	-0.541	-0.837	2.89	inactive
30	RSPO2	3	0.298	5.06	6.23	inactive
31	SLC25A42	1	-1.08	-4.66	2.58	inactive
32	SLC25A42	2	-0.758	-2.36	4.04	inactive
33	SLC25A42	3	-0.381	0.289	6.03	inactive

The list goes on, starting with the last 3 of the part before.
no.	target gene	siRNA no.	G2 robust z-score	G2 cells, % of GMNN control	raw share of cells in G2 (%)	outcome
31	SLC25A42	1	-1.08	-4.66	2.58	inactive
32	SLC25A42	2	-0.758	-2.36	4.04	inactive
33	SLC25A42	3	-0.381	0.289	6.03	inactive
34	COX6B2	1	-0.283	0.975	4.85	inactive
35	COX6B2	2	2.66	21.7	14.3	inactive
36	COX6B2	3	1.46	13.2	11.8	inactive
37	SLC41A1	1	-0.0348	2.72	4.56	inactive
38	SLC41A1	2	1.72	15.1	8.3	inactive
39	SLC41A1	3	0.249	4.72	4.7	inactive
40	PIAS1	1	0.357	5.48	6.67	inactive
41	PIAS1	2	-0.442	-0.139	5.21	inactive
42	PIAS1	3	-0.291	0.921	4.96	inactive
43	PEBP1	1	0.0611	3.4	4.36	inactive
44	PEBP1	2	0.321	5.23	7.18	inactive
45	PEBP1	3	-1.36	-6.63	2.06	inactive
46	IHO1	1	-0.36	0.438	4.14	inactive
47	IHO1	2	2.43	20.1	12	inactive
48	IHO1	3	0.855	8.99	7.81	inactive
49	LCLAT1	1	0.155	4.06	6.41	inactive
50	LCLAT1	2	1.56	14	9.82	inactive
51	LCLAT1	3	0.858	9	10.3	inactive
52	GRSF1	1	2.55	20.9	15.1	inactive
53	GRSF1	2	2.65	21.6	12	inactive
54	GRSF1	3	0.585	7.08	6.3	inactive
55	SLC16A5	1	-0.793	-2.61	3.77	inactive
56	SLC16A5	2	-0.733	-2.19	4.49	inactive
57	SLC16A5	3	-0.55	-0.899	4.13	inactive
58	JAK3	1	-0.336	0.601	5.81	inactive
59	JAK3	2	-0.448	-0.187	5.35	inactive
60	JAK3	3	0.0913	3.61	5.3	inactive
61	MMUT	1	-0.746	-2.28	2.44	inactive
62	MMUT	2	1.38	12.6	10.5	inactive
63	MMUT	3	-0.42	0.0117	5.36	inactive
64	SEPTIN12	1	-0.778	-2.5	3.89	inactive
65	SEPTIN12	2	0.969	9.79	8.18	inactive
66	SEPTIN12	3	2.23	18.6	14.3	inactive
67	LINC00632	1	1.03	10.2	7.37	inactive
68	LINC00632	2	3.51	27.7	13.7	inactive
69	LINC00632	3	-0.125	2.09	3.9	inactive
70	SMU1	1	0.451	6.14	6.88	inactive
71	SMU1	2	0.868	9.07	7.9	inactive
72	SMU1	3	0.613	7.28	5.46	inactive
73	NFE2L1	1	0.49	6.42	6.01	inactive
74	NFE2L1	2	-0.0605	2.54	6.04	inactive
75	NFE2L1	3	0.963	9.74	6.64	inactive
76	ZNRD2	1	-0.0815	2.39	6.41	inactive
77	ZNRD2	2	-0.364	0.408	4.11	inactive
78	ZNRD2	3	0.298	5.07	5.25	inactive
79	SQLE	1	-0.427	-0.039	3.94	inactive
80	SQLE	2	-0.716	-2.07	3.84	inactive
81	SQLE	3	1.11	10.7	9.3	inactive
82	LINC02915	1	-0.274	1.04	4.19	inactive
83	LINC02915	2	0.558	6.89	6.25	inactive
84	LINC02915	3	-1.06	-4.48	2.94	inactive
85	NCAPG2	1	1.28	12	7.16	inactive
86	NCAPG2	2	-0.0335	2.73	4.58	inactive
87	NCAPG2	3	-0.177	1.72	5	inactive
